From PMC3335879, “Selective Inhibitors of Protozoan Protein N-myristoyltransferases as Starting Points for Tropical Disease Medicinal Chemistry Programs” (PLoS Neglected Tropical Diseases, 2012)

Tested on: L. donovani NMT
Assay type: biochemical
Conditions: selectivity for Ldon NMT over Pfal NMT derived from IC50 values
Experimental: Recombinant P. falciparum (Swiss-Prot Q81LW6) and L. donovani NMTs (EMBL accession number FN555136) were produced at the University of York, using established protocols. An assay format based on scintillation proximity technology to monitor enzyme activity was used as previously described, [30].
The Pfizer Global Diverse Representative Set consisting of 150,000 compounds was screened at 20 µM final assay concentration. Assay plates were prepared by dispensing 0.1 µL of compound dissolved in DMSO using the Vario system (Cybio) into white 384-well plates (Greiner Bio-One).
The reaction was initiated by adding 10 µL of the substrate mixture to each well containing the pre-incubated enzyme/compound mixture, and allowed to proceed at RT for 80 min. The reaction was quenched by the addition 20 µl of stop solution to each well. Stop solution consisted of 0.75 M MgCl2 (Sigma), 0.1 M phosphoric acid (Sigma) and 1 mg/ml of streptavidin-coated polystyrene SPA beads (Perkin-Elmer). Plates were sealed using topseals (Perkin-Elmer) and left overnight to allow the bead solution to settle. Radioactive counts were measured with an integration time of 300 sec per plate using the Leadseeker Generation 4 plate reader (GE Healthcare). […] The data were analysed using Pfizer SIGHTS software and visualised using Spotfire software (TIBCO).

Cc1cc2nc(N(C)C3CCN(C)CC3)nc(N(C)CCC#N)c2s1 [PF-00349412]
Ldon/Pfal Sel: 82
